This is an account of results in publication PMC7819943, “Rice protein-binding microarrays: a tool to detect cis-acting elements near promoter regions in rice”.

The other results are listed elsewhere or left out.

In the assay the target is T1, OsSMF1 (Oryza sativa, UniProt Q6ZLB0 1-436).
T1 sequence: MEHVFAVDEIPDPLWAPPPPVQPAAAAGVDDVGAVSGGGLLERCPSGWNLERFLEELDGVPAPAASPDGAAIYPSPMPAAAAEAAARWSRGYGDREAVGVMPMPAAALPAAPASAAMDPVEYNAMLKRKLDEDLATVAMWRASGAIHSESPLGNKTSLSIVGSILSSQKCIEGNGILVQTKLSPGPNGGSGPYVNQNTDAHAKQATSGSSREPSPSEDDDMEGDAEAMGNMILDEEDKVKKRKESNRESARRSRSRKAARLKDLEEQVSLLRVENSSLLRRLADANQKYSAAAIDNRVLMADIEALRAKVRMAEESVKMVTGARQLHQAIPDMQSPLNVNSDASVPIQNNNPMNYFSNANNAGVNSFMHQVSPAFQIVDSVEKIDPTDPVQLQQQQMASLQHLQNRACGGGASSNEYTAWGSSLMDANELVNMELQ
As to the kind of experiment: protein-binding microarray (RPBM); PBS, 2% BSA, 51.3 ng/ul salmon testes DNA, 50 uM zinc acetate, 200 nM TF, 25 C, 1 h; high values mean tight binding. As to conditions: protein: recombinant; tags: N-terminal polyhistidine and DsRed monomer fusion (pET32a); chain copies: 2; label: CyDye5-dUTP incorporated in the synthesized complementary strand; 3' TTTTT single-stranded linker to array surface; dsDNA, one strand shown. The method, boiled down: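 Binding signal is reported as fluorescence intensity per feature (arbitrary units) from an Axon 4000B scanner. Incubation used 200 nM of each Ni–NTA-purified, N-terminally polyhistidine- and DsRed-fused transcription factor from E. coli BL21-CodonPlus on a double-stranded custom Agilent array for 1 h at 25 °C, with 50 µM zinc acetate in the buffer, followed by washing.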
In the case of “TGGCGTGGACTTCAGGTGTCATCGTCTCTCTCTTCTGTCCCGGAGTCACCTAGTGCAG”, the binding signal was 3900 fluorescence intensity (a.u.).

Turning to “CATATCGCGAACAAATATATGTAATAGTGTGAATGACAGGCGGAGTCACCTAGTGCAG”, the binding signal was 3410 fluorescence intensity (a.u.).

As for “CGGCAGGATGACGTGGAGTGTGACACGCGCGCCACGTAGGCGGAGTCACCTAGTGCAG”, the binding signal was 21000 fluorescence intensity (a.u.).

As to “CATGTAACTCGCATATTCCCTGTCCTTAGCTGAGTCAACACGGAGTCACCTAGTGCAG”, the binding signal was 6490 fluorescence intensity (a.u.).

As to “CGTGTGTAACTTTGGAACCTGCCACGGGAGAGCGAATTCCCGGAGTCACCTAGTGCAG”, the binding signal is 25500 fluorescence intensity (a.u.).

Turning to “TAAGTTGTCAGACGTGGCAAAACTATCTTTATTCTTATCCCGGAGTCACCTAGTGCAG”, the binding signal is 11500 fluorescence intensity (a.u.).

Take “GGTACTGACATTAGCAGCAGTTACATCCATTATCCCTGTGCGGAGTCACCTAGTGCAG”: the binding signal was 3260 fluorescence intensity (a.u.).

Regarding “TAAGCTTTCTATAAAAGATCCATGTCAGCATATTTTCCTACGGAGTCACCTAGTGCAG”, the binding signal is 7260 fluorescence intensity (a.u.).

Regarding “CGGCGAGCATTGTTGACGCGTTTTCGCCATGCGTGCAGTTCGGAGTCACCTAGTGCAG”, the binding signal is 3590 fluorescence intensity (a.u.).

For the sequence “CTGGGAGGGAGGGGAGGGAGCGCCGCCTTTGCCACTATCGCGGAGTCACCTAGTGCAG”, the binding signal was 4880 fluorescence intensity (a.u.).

With “CATCCAGTGTAGTAGTATACTAGTATGAGTAGGCTTGGTACGGAGTCACCTAGTGCAG”, the binding signal is 3690 fluorescence intensity (a.u.).

On to “CTTTCCCTTGCTCGTGTCGCCATGTAGGCTGTTGAGTTGGCGGAGTCACCTAGTGCAG”, for which the binding signal was 3150 fluorescence intensity (a.u.).

Turning to “CCACCCTCTCACAGCACAGCAATTGCATAGCTTTCCAATTCGGAGTCACCTAGTGCAG”, the binding signal was 25000 fluorescence intensity (a.u.).

On to “AATCATGCAATAAAATAAACTTCGTTTTGCGTGGCAGGAGCGGAGTCACCTAGTGCAG”, for which the binding signal was 4630 fluorescence intensity (a.u.).

Take “TAGCATTCGCAACGTGTATACTCAACTGTCAACTTTGTGGCGGAGTCACCTAGTGCAG”: the binding signal was 3680 fluorescence intensity (a.u.).

Consider “ATCTAGCATGGCCATCTTGCGGTGGCAAGCCGCTGCCGGACGGAGTCACCTAGTGCAG”, for which the binding signal was 3390 fluorescence intensity (a.u.).

On to “ACTACATATGTAATTTTATAACTTACATATGTAATTTTAGCGGAGTCACCTAGTGCAG”, for which the binding signal was 17400 fluorescence intensity (a.u.).

With “CATCTTGTAACAATTTGACCGGTGACCTCGTGGCAAGCAACGGAGTCACCTAGTGCAG”, the binding signal was 3690 fluorescence intensity (a.u.).

Consider “CCTTAGACCTTCTGGATTACATCGTAAGCTGGCTTCTCCTCGGAGTCACCTAGTGCAG”, for which the binding signal is 3490 fluorescence intensity (a.u.).

For “CGTCAAACAGAAAATATGGAGAGAGAACTAATCGGGGTAACGGAGTCACCTAGTGCAG”, the binding signal is 4520 fluorescence intensity (a.u.).

Take “CGGTTTGCCGGCGGCCGACGTGGCCGGCCTCGCAGCGGCACGGAGTCACCTAGTGCAG”: the binding signal was 7440 fluorescence intensity (a.u.).

For “TCTGGATCGAATTGCCACGTAAACGCCACGTCAATGCCACCGGAGTCACCTAGTGCAG”, the binding signal was 25100 fluorescence intensity (a.u.).

On to “AAACGTCGCCCGGTCCGACGTGGGAGAAGCATGGACCGTCCGGAGTCACCTAGTGCAG”, for which the binding signal was 4760 fluorescence intensity (a.u.).

In the case of “GTGCGCTTGCGGTTGCCGCTCCAGTGAGCTGGACGACGTCCGGAGTCACCTAGTGCAG”, the binding signal is 4820 fluorescence intensity (a.u.).

On to “TTGGTGCCCTTTTGACTCTGAAGACGACAATGATTTTCCTCGGAGTCACCTAGTGCAG”, for which the binding signal was 18200 fluorescence intensity (a.u.).

As to “GGTCCCACACGTCATCGTCACGTACTCCAGGCTCTAGCCTCGGAGTCACCTAGTGCAG”, the binding signal is 13400 fluorescence intensity (a.u.).

As for “CGCCTGCCTGCGTCACCACCACTCCACTCGTCGCTGCCCCCGGAGTCACCTAGTGCAG”, the binding signal was 14400 fluorescence intensity (a.u.).

Consider “CATCTGCTTTCTAGTTTCTTCCTGAAGTTCTGCGTCATAACGGAGTCACCTAGTGCAG”, for which the binding signal was 3470 fluorescence intensity (a.u.).

For the sequence “AACTTGCTCTAATCCTATTCTGACGTGGCCACCCGCTCCGCGGAGTCACCTAGTGCAG”, the binding signal was 26200 fluorescence intensity (a.u.).

With “GGACCTTCACTGCTGACAAGTGAAATGAGTCATGGGTGCTCGGAGTCACCTAGTGCAG”, the binding signal is 8880 fluorescence intensity (a.u.).

Regarding “ACGACGTCGCCGACTACATCCGCTTCCGCGCCGTGTGCCGCGGAGTCACCTAGTGCAG”, the binding signal is 3470 fluorescence intensity (a.u.).

As to “TCGTCCATGGCCGCAGATCTTTCGTCCGCGCCGTCAGCGGCGGAGTCACCTAGTGCAG”, the binding signal was 4180 fluorescence intensity (a.u.).

“AACCTCAATGTTCCACGTCATCATTAATTTACAGCCGTTGCGGAGTCACCTAGTGCAG”: the binding signal was 39400 fluorescence intensity (a.u.).

For the sequence “AGACAAATGTTTCACACGTGTATGATCGTTCTAGAATTGTCGGAGTCACCTAGTGCAG”, the binding signal is 5530 fluorescence intensity (a.u.).

Consider “GAAGGAGAGGAAGAGGAAGAGGGGATAAAAGTTTTGCTTGCGGAGTCACCTAGTGCAG”, for which the binding signal is 28900 fluorescence intensity (a.u.).

For the sequence “AAGAGCGTTTAAACAAGCTGTGGAGTCAGCAGATAGATTACGGAGTCACCTAGTGCAG”, the binding signal is 3940 fluorescence intensity (a.u.).

Turning to “TAGCAACAAACTTGATGCATACATCATCTCCACTATTTTCCGGAGTCACCTAGTGCAG”, the binding signal was 4380 fluorescence intensity (a.u.).

As for “AAACGAATTGTCCTTACTGAATGCCCACTCACTACATTTTCGGAGTCACCTAGTGCAG”, the binding signal was 3470 fluorescence intensity (a.u.).

Turning to “AGGCAACACGACAGCACATCGCATCGTACGTACGTCGTTCCGGAGTCACCTAGTGCAG”, the binding signal was 3730 fluorescence intensity (a.u.).

In the case of “CATTTCCTCATCCCCTTCTCTCTGTAAAGGACGAGCTGTGCGGAGTCACCTAGTGCAG”, the binding signal was 3490 fluorescence intensity (a.u.).

On to “GGCGGCGTCATCTGCGCCGCGTCCACACACATGTACGTCGCGGAGTCACCTAGTGCAG”, for which the binding signal is 3850 fluorescence intensity (a.u.).

For “GCCCAAGCGAGGACTTAACGATGTTGGCCACCGCCTGGCACGGAGTCACCTAGTGCAG”, the binding signal was 3170 fluorescence intensity (a.u.).
